Drawing on publication PMC10155811, this text covers binding for one substance.

Sequences of proteins named here, by UniProt entry; tags and fusion partners are left off. A change or cut given only in a name is not applied to a line headed by its entry.
UniProt O43683: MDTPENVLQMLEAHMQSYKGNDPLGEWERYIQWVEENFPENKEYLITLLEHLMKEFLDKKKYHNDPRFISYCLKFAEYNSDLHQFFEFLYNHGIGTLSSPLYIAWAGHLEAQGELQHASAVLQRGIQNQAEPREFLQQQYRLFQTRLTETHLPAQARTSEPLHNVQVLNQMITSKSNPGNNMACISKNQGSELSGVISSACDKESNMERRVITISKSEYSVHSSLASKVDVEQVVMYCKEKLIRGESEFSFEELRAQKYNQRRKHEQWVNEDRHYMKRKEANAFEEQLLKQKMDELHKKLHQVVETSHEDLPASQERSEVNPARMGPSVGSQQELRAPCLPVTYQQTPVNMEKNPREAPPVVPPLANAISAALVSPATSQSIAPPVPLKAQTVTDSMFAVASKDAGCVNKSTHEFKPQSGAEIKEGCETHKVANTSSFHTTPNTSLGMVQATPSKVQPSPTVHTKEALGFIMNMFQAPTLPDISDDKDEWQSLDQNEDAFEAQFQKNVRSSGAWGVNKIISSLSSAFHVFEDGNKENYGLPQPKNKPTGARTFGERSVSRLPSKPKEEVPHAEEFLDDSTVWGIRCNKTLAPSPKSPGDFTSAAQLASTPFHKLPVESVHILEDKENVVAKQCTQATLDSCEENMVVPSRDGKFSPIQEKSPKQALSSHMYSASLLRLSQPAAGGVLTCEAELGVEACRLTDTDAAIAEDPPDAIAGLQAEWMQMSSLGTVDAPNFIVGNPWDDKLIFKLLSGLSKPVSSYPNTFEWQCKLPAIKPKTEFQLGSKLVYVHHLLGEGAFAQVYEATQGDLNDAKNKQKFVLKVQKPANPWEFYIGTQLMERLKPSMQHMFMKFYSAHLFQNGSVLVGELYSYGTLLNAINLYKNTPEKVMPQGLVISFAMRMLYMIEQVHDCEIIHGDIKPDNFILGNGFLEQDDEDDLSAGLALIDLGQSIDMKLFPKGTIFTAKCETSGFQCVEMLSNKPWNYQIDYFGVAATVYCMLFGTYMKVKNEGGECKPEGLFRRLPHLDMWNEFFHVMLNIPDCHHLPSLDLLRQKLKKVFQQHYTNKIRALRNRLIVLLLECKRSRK
UniProt Q15172: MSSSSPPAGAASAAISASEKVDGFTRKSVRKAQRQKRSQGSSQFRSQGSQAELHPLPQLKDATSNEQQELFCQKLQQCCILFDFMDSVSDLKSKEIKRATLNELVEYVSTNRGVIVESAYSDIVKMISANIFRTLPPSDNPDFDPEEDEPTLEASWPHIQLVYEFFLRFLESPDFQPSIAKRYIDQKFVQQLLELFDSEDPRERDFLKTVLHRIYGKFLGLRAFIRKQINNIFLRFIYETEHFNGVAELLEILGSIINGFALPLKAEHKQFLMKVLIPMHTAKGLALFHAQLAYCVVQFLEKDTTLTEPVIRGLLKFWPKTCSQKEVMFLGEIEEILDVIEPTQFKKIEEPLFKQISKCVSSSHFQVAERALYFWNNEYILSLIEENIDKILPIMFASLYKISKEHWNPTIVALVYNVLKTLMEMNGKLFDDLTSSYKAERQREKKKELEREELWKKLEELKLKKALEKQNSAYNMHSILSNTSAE

Results are given in words; binding and its absence hold for the method and conditions named. In cells and extracts the contact can be indirect.

The assay has as its target YFP-Bub1ΔBubR1 (human) (UniProt O43683). The assay can be described thus: co-IP; YFP-tagged Bub1 or BubR1 proteins precipitated with GFP-Trap agarose beads from lysates of nocodazole-arrested mitotic HeLa cells, low-salt buffer (Kruse et al., 2013); quantitative western blot for B56α and YFP.

On to “PP2A-B56 (detected as B56α) (from UniProt Q15172 1-486)”, for which the binding entry was “no binding”.
